14 molecules from publication PMC11277477 can be followed below.

For test [1], the target named is GST-EhADH recombinant protein (E. histolytica). The test can be described thus: affinity purification with mass spectrometry; GST-tagged bait (or GST control) bound to glutathione-Sepharose (200 μg) incubated with total trophozoite lysate (2 mg), 4 h, 4 °C; SDS-PAGE, silver stain, bands cut, nano UPLC-QToF; hits with reliability above 95%; only the target purified.

The target of test [2] is T1, GST-Linker recombinant protein (E. histolytica).
T1 sequence: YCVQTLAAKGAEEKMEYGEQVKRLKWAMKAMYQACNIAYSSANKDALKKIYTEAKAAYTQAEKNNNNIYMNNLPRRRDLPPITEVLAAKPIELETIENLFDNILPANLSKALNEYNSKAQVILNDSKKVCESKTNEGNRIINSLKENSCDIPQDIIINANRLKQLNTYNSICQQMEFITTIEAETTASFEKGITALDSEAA
The description is as above.

These are yes or no findings as the source states them, for the method shown. Binding seen in cells or lysates may run through a third protein. Here binding means that the protein was enriched with, or labelled near, the bait; the list need not be complete. For some assays here: Tags and fused reporters may be left off the sequences shown.

B1: Dipeptidyl peptidase III (enzyme, UniProt C4LUC2 1-645)
chain: MSLSVKTPLKFLDCTHAWEQLTPEEQVYIHHLNKANWASFPISIKQCSVEAYDIFVAFLKMYKNISHVELLKKSEVSDSAKEQYEDYVSTFFANGGNYLSFGDKKFIPECSKEEFTTIINASGHNYFESLIDIIYDVTPCLIHFGIPPEGCTAYYSSNITKEDIEHCNALLQKKGMLLENTRIDKINNKLVIGIASIEEREEEYEDVILKYGWCHSELEMLVNELKECEKLELVQKDKNKKEMFKNYIQTFTNNYNLHKEAQRWWVRDQKPSVEFNVGFIETYEDPIGVRGEWEMFVAVVDKEKTKELTELVQRANEILPSLPWGKVFEKDVFESPDFTSIDIVGFGTSGLPIGINLPNYDDVRMEQFKNVSLSNVMACGSSQDNIPFISLEQQTLYKTCSPRALETQVALHELLGHGSGKYLRCDNGKKNFPENLTNPLTGEKVKYYQDKMTYDTVFKSLGSAMEECRAEAVGLFLTYNPIVKEILNLSEDVQYINWLSEMRSGLTGLKFYNPETKSWGQAHCQARFALFKAVEKSGAVEVVGENIVLHRELIPKGIEALKELLLKIQVCRATADTEYAHSFFIPLSTPNEDELKFREIVINKKIPRSGFIQCNTKMVDGKVSLITYKSDIEGMIQSFLDRYSF
For the molecule B1, the binding result in test [1] was “binds”.

B2: EhVps4 (enzyme, UniProt C4LYN8 1-419)
chain: MTSLLDKGKEFSKKAMEEDEKGNSKEALEYYKKAIDCLVAHKKTEKNEKVVNIINKRVKEYVERAEYLKRMISGERVKSDDPDKEEDAENKARSNAVGNAVLKEKPNVHWEDVIGLEKAKEALQEAVILPIKFPQLFTDKRKPWTGILLFGPPGTGKSFLAKAVATEADSTFYSVSASSLLSKYLGESEKMVKELFETARKNKPSIIFVDEVDSLCSSRGDGETEASRRVKTEFLVQMNGVGNSMEGVLMLGATNIPWQLDTAIRRRFEKRIYIGLPDASARAKMIKWNLGKLPNQLTDNDFKILGEQTELFSGSDIATLCKDAIYQPVRTLQAATHFKYVTGPSPITGEIQNDLVTPCSPGDKGAMEMNWKQIEGSKLVVPPVTMMDFMKSIKNSRSSISVEDVNRHREWAEQFGQDG
As to B2, the binding result in test [1] is “binds”.

B3: EF-hand calcium-binding domain containing protein (protein, UniProt C4LVG7 1-264)
chain: MYGYPVGGMNLSGYPMNGICPIQPMGSVQVGVPVITNTPGMVTSVPVSALCLWNLVPSSNSWMNSRVQCQIMLDPMLRNNWWWNLVQSVSVTQFNSVYMWFLSVDTDRSGTIEINELMMAQFPGGITLTPQTALRLMRIFDVDFNGRISFYEYMGMHKFLEICYNVFIQCDTNRSGTMEPHEIIPALRILGFFVNQRTAIVLHRLFAHGSTICDLNCWIALCAFAAQTRTAYQLITMNPYYGIIQPFNPIEFGKFLDIITSLLE
B3: the binding entry in test [1] is recorded as “binds”.

B4: Actin (EHI_008780) (protein, UniProt C4M0P2 1-763)
chain: MNFFKKQFNGNEFMVRCQCALRRISAQQKKYQTHSKTFKKQIIELLQNNERDKAFDKCTLLVQEDYKNEALTELIDVIDELMKNSEIIGTQRICPLELKSACGAILYASPYFPDHTEMMELRNMLIDKFGKTFPEECVNSKVISPKLLSRLSSKPVDSDVVNYYLDSIAKENNLITEENKLPEENPNEMLPADASKCELSRLLDGKQNNKYTFGVLTKNVIGKIKKGGDKVEAYISGPNNTKIIGEVTDLHDGTYDIVFVPPYAGNYLIAVYVNDKQIEQIGKLHILEANSLDLNKCIIEGNGIKGGYVNEKQNFTIIAKDSSGQTINHGGEPFAAYIAGPNDVKIIGDITDLKNGQYDVSYVPPIKGNYAIAVYHNTTLVQSVFNFSIEERSTQQQFPTIQQHIQPQITKSFIPVQGKPGEHFIIDIGSCSIKSGFESVGTPSIVTPTVVGKNLHQTSGFVEQNLYVGDEAIDKRGILSLEYPMQKEPIDYNSLKSVMKHSVEVAQGHPTVVITNGLTPLQMKINTSEILFNEGVQSIRFVDEAQAISRLYNKQNCVIVNIGGMMSWVIPVINGIVYNNISQKLPIAGVKCTEILMALLSKEGITLGSTSSEKEIARQIKEATGYIQVSHNSLIQPINYSLPDGTSLTIGNSRVQCFEPLFNPQLCAMNCSGISQMIATVLRNINGCTNEIILVGGGSLIKGLKERIENDIQQLLNFKINVIAEDNRKFASWLGANLLDKENIGKIITLDTWKQEGALCLDD
For B4, in test [1], the binding entry is on record as “binds”.

B5: Small Rab7 GTPase (enzyme, UniProt A0A8U0WQ32 1-197)
chain: MTQQTFKIILVGDSFVGKTSIINRFINAEYSTDYKSTIGSDISQKEIIVDGLLYSLSIWDTAGHEKYQSVIKSFYRGSDFCLLVYDVTNEESFMHLDKWWNEYQQEDVDKAREAVVMVIGNKVDKSQERVITEEQGKSLANERGWLYKETSASENIGIEEIFKELIRSKNPLKNSVKYPQPPPIVEIQLNVHKKQCC
In the case of B5, in test [2], the binding result was “binds”.

B6: EhVps22, ELL complex EAP30 subunit (protein, UniProt C4LXI0 1-237)
chain: MSKRTIDLLCRQKEAMSTKGKEFCLVNQKERERQINLFKLKLEEFLQNNRYEITNDVNIQNMLYILCRKMGVEPLTTEKSYFNIFFGSNAFYNELTVQIIEECYKSRESNGGIIEINKLCELINKKRKSIIRQNDIFKAINQAKCLGEGLKVVTIYQQSYVISVPFELADDQQVVLTLLNKKPYFLEDELLIIGWSKERVKGTLVWLLNIGMLWVDDQFPLDGKTTRAYWTSLYNLF
As to B6, in test [1], the binding result is given as “binds”.

B7: GTP-binding protein (EHI_031410) (enzyme, UniProt C4M4L8 1-190)
chain: MWIWEWFWNLLADLGLAYKTGKMLFLGLDNAGKTTLLHLLKDGKVSQHIPTQQPTMEELVMGNIKFNTYDLGGHTPARKVWKTYCTEVDAVIYIVDCAAPERFGESKKELDSLLNDEMLQNTPFLILGNKIDIPGAVSEAQLREAMGLTHTTGKGNVTCEGIRPIEVFMSSIVNRQGYPEGFKWISQYMK
For B7, the binding entry in test [2] was “binds”.

B8: EhVps36 (protein, UniProt C4LTE5 1-235)
chain: MSNQPQYGIKSYIEAKEKDQNDIDNLFSNAFESLDTVIQYWDQLDKVATKFLKESNMEKENHEYQSLITYLDITEPVTKKLFGNNYEEALMDEIDEFCYLYFQKKKEMAIMLSDLYAIYNRARGILISPKELRNVCELLNDKGKYVGLMNVNKSLIIHERDFTLEKFQNTILDALKSRQKISSFTIAQHYGIQYAIVQTLMDQLEQNELICRDESEEGIMYYENLFNTQYLQYIK
Turning to B8, the binding result in test [1] was “binds”.

B9: EhVps32 (protein, UniProt C4M1A5 1-204)
chain: MSWFRRNTTKQTIAKMNEQIKTMEKKEEYDRKRMEMELEKAKECMKKGDKTGAAQHLRKKKMHEKNMNETINLRMNLESQILEMESAKVKVDTARSFAAANKEMTKINKEMDAGKIEKTMDELRENNEKSHEIGDLLGEDLQDIDQGELEDDLAELEDQVLDEQEDELAELEHDLPAPKAKVTKQKVTKKTLTQEEEDELAELM
Take B9: the binding entry in test [1] is reported as “binds”.

B10: EhVps2 (protein, UniProt C4LZV3 1-246)
chain: MSRLFHKKTPQEIVREQKLNISKSIREITRESKRLEREEVRLTNEIRKMARLGRTNTVKVMAADLVKTKKQIDKLQVVIAQLNSTKMKLTEMSSMVAVTEAMNGVTNAMRKVNEATKLPAMQKVMNDFEKQNAELGIKNTMVSDMVNEGYEGDDIEEETELEVDKVLTEIGLDVENGLKPVPETRQRNTRLKERRQVQMEGGVKTRNEGNEQPEDLDTPGSRVPKAFNEGEDDEDEDDIVSRIANL
For the molecule B10, in test [1], the binding entry is “binds”.

B11: Zinc-finger protein (protein, UniProt C4LYX5 1-395)
chain: MTYSRCGIVALTERKSRFLEIQTDRTSYLLGDVVLVTINAKMDHMPRYESVVLLVSCVGTISRTFTDVKMPPNPKVLSKTYFEMKNEFMNQNFPLSYSFSLPGTSPFTGEESSFVLSNSITSQIFKINAMHSYRIDLFVKQEGKIYLAEQKDIVVRRTFQQIQPSPSWNFEIDNFKIKIVLDKPSYYPQENGFLLFEVNSKVQRSTSIPKISFNQTLIFNFDDQQIVVKKQIIPQMSLPAFQPYYYGKRPLLFKIPEGLPPSHSTPLFKVEYSFDINIDLFYEGGTQTPLKVILKSTILAPPNLCGACVFMPLITNDFNPPSESILRPFWQEDKSTDTCGICGASFGLITRRHHCRRCGKVFCGSCCVDSVLMKDLGFDRPERVCKSCFKLIQSN
As for B11, in test [1], the binding entry is on record as “binds”.

B12: Rab GTPase (EHI_164900) (enzyme, UniProt C4M1Y3 1-264)
chain: MSDTKETVPTNNEEKLDIEPKKDIKEEVKPEEEHKEEEHKEEKPEEVKPEEVKPEEVKPEEVKPEEEKKNESNEQQKVKVIMVGESSVGKTCCMNRYVSNEFAEQTKATIGVGVGSKEVEVEGKHIKLQIWDTAGQERFATLTGNYFRNAMAAIIMFDVSNKESFENIPNWVEQCCKSDGKHIIFIAGNKIDLENRVVSKEEAEEKAKELKLKYFEVSAKTGDGIEDLFNELIKEIMKTPFCNEQEKEGVELDGQKKQKKGGCC
For B12, in test [2], the binding entry is given as “binds”.

B13: EhVps23 (protein, UniProt C4LUR9 1-283)
chain: MNLSKIDLTLSTVKPYYLYYLRVRVEITSVMQYYKFSATVRTYADGIILASLVGTIPIVYRGSQFCLPLCIMYPYDYPLSPPLFFTDPTPEMEVVPGHPYAMPNIVICHPILDRWSENVNTLSVLQVFVKDFSYMPPLRMKTSVIPSYSCYFPEWSSYYSYPQNYNQPIPLNHSHQLPSISSIYATESNPSIPPPQSQQLPSFQNTMDTLFTIDGFAPFKTKENECSQSPSHKKLFTKSSGPMITDLKAFVLGKQQHMKRSLPTISQTKKYKTRTTLTPLNTK
Regarding B13, the binding entry in test [1] is given as “binds”.

B14: EhGrainin 1 (protein, UniProt C4MAF9 1-215)
chain: MSLFAIQAAADAWVAQHITAAYQADPLIQREWWYPLATSISGTEFKELQDFFVKTDKDKSGSLELDELKKAKFPGGIKLDENACRHLMRIFDVDLSGSIGFYEYLALMKFVKLATAVFTKFDKDKSGNLDEQEIYAALPELGFDLNMKACKILIQLCGKGLLTKKIQISQFISCAAYLGQIRTIYQHGFKQAQGDFNRATFSKFMNLTLMLMDDA
As for B14, the binding entry in test [1] is “binds”.
